The other results are listed elsewhere or left out.
Legend:
Assay in all cases: log2 fold change, soluble protein after heating vs DMSO (PISA); higher = thermal stabilisation; K562 lysate, 10 uM; active = over 0.2 and 3.5 SD of the protein, either way, in both replicates (recomputed)
[1] = compound: C#Cc1cccc(Nc2ncnc3cc(OCCOC)c(OCCOC)cc23)c1 [erlotinib]
Outline: (§1)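 Pellets of K562 cells were dounce-homogenised in PBS pH 7.4 with 1 mM MgCl2, and the crude extract was held at 1 mg/mL protein for a 30 min treatment with 10 μM compound. Aliquots were heated for 3 min over 48°C-58°C and pooled before NP-40 was added to 0.5% at 4°C. The supernatant from 21,000xg for 90 min was quantified by TMTpro 16plex LC-MS/MS with channel sums equalised. Values are reported from duplicates as log-two fold change in thermal stability relative to solvent controls.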

By UniProt entry, the sequences of proteins in these tests, tags left out. Where a name states a change or a piece, a line headed by the entry shows the natural chain unless it says otherwise.
UniProt Q5U649: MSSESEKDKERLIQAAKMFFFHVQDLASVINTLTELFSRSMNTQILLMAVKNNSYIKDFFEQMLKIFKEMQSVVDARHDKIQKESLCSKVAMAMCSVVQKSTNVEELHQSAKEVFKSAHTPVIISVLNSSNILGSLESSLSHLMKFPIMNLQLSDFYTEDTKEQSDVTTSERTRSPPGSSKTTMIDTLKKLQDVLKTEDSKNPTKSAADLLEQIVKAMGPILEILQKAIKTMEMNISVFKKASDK
UniProt Q3KRA6: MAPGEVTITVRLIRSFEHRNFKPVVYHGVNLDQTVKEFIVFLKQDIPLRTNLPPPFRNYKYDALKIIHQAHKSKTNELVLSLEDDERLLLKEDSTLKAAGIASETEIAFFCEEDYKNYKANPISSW
UniProt P04003: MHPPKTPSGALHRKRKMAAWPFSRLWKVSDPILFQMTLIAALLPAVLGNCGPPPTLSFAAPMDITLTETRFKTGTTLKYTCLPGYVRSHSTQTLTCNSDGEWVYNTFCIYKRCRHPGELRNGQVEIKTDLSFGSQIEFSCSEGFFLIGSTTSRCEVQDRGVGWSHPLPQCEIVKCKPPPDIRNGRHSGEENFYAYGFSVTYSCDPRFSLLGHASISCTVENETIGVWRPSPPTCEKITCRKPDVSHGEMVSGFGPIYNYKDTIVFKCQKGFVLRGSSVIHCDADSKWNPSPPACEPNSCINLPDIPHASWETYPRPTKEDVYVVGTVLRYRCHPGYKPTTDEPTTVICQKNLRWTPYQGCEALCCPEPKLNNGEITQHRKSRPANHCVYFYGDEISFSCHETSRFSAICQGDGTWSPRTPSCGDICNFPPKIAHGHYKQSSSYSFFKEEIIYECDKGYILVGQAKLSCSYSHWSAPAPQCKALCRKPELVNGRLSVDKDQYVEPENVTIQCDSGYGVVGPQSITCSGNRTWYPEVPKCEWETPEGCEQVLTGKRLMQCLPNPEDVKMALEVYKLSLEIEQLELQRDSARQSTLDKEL
UniProt Q01518, whole entry, looked up: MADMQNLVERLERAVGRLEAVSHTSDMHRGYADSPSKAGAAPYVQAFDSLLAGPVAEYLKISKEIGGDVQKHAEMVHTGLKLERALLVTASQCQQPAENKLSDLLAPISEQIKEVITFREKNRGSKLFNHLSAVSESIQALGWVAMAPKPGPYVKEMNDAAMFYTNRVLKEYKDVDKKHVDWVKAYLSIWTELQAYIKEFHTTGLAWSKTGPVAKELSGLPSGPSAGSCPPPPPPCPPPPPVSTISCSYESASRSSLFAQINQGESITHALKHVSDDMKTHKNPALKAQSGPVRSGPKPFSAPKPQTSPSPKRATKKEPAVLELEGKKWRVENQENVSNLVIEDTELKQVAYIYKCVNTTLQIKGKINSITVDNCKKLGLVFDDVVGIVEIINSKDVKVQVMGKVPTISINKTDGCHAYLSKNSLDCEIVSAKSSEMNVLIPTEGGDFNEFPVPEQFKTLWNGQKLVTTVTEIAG
UniProt Q9P1Y5: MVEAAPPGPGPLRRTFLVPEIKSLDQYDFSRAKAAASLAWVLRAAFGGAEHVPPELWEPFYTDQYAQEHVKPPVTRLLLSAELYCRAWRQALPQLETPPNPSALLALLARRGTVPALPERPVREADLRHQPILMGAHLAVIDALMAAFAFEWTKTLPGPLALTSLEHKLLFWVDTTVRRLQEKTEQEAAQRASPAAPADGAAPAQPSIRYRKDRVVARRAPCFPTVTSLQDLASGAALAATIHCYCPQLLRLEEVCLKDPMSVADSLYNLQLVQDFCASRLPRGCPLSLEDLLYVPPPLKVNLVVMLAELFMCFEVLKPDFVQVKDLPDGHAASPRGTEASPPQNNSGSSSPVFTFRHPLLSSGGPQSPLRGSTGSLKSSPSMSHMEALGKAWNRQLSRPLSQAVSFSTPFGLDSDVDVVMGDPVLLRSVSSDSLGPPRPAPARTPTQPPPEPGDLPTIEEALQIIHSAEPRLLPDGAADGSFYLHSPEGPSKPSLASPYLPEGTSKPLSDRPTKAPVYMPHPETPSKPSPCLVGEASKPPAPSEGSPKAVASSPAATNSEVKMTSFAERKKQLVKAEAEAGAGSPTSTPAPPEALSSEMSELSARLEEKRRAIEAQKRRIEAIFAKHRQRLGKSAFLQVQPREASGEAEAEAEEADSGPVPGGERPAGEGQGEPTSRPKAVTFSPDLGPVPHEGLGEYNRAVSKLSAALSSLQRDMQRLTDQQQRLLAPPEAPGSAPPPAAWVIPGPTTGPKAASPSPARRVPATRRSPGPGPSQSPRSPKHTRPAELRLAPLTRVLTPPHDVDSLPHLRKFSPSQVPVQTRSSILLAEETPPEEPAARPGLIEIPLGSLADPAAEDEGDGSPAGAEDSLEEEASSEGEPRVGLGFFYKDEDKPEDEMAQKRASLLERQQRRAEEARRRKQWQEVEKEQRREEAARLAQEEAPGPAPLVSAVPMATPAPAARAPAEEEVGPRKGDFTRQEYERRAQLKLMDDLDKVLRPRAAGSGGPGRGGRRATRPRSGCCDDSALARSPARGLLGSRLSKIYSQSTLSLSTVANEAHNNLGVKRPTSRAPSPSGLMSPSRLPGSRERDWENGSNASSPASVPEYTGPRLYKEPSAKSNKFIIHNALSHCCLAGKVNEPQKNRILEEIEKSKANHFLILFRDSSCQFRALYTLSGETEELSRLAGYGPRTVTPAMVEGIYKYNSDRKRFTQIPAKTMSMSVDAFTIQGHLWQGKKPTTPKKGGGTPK
UniProt Q6P5X5: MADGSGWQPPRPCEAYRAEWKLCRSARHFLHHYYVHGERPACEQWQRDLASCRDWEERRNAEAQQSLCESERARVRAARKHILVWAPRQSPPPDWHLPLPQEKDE
UniProt Q9BVC5: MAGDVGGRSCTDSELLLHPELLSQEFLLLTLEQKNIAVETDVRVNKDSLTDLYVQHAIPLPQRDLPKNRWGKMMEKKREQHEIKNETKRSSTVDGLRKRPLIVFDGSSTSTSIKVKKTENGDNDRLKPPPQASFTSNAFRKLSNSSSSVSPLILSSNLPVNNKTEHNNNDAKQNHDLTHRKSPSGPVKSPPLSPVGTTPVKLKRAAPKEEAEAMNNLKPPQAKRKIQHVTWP
UniProt Q9NX04: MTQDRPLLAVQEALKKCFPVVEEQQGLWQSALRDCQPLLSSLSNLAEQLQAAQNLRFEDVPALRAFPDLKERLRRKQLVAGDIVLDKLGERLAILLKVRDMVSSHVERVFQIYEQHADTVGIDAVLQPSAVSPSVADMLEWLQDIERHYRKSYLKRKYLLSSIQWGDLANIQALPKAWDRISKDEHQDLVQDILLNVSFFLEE
UniProt Q96HA4: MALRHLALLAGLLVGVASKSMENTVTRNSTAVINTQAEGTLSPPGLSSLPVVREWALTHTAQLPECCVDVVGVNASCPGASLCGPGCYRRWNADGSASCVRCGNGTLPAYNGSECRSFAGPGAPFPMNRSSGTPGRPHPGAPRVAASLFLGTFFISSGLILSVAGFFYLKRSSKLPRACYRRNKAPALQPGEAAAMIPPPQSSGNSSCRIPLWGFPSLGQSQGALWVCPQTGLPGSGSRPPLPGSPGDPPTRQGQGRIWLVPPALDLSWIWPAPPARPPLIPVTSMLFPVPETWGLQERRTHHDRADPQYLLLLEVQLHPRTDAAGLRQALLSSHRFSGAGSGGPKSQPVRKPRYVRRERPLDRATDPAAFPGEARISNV
UniProt Q9NSK7: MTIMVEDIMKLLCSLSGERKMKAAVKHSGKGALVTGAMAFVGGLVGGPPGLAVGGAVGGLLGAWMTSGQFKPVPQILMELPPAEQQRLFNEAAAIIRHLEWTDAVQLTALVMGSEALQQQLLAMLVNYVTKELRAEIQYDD
UniProt Q8IYL3: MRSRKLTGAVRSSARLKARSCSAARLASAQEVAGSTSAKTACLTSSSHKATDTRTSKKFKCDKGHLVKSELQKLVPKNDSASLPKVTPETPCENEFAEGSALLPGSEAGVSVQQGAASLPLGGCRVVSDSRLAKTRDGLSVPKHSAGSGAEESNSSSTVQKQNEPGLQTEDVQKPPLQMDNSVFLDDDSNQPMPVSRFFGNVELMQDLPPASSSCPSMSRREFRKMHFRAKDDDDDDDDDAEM
UniProt Q9NZP8: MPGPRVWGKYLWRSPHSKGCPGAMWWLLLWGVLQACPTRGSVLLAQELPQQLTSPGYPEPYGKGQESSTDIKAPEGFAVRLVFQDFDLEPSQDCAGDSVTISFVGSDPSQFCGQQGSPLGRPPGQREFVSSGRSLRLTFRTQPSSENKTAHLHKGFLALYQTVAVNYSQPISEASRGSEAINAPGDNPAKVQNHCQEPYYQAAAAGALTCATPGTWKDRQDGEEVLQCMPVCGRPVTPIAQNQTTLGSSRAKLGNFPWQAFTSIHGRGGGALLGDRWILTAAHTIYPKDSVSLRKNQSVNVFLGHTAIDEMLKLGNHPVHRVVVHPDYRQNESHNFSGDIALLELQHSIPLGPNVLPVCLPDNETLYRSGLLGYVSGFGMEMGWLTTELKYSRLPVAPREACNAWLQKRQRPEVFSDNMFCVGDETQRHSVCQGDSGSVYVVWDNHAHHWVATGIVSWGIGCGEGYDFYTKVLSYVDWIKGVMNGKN
UniProt Q9GZU0: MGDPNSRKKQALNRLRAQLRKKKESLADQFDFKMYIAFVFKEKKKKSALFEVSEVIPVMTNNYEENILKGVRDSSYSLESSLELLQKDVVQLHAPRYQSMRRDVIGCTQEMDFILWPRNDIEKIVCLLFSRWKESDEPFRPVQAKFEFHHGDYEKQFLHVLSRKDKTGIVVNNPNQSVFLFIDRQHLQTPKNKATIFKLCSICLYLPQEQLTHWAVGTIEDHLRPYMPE
UniProt Q9BSF0: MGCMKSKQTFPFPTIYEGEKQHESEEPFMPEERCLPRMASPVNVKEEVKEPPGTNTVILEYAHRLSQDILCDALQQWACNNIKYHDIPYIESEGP
UniProt Q7Z7L8: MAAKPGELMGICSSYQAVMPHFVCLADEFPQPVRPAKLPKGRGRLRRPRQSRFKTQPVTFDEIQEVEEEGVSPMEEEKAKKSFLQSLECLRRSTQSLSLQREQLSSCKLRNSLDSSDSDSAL
UniProt P0DMB2: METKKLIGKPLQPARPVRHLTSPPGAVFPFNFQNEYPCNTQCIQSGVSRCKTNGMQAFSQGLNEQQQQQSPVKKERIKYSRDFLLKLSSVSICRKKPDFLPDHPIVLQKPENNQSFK
UniProt Q16581: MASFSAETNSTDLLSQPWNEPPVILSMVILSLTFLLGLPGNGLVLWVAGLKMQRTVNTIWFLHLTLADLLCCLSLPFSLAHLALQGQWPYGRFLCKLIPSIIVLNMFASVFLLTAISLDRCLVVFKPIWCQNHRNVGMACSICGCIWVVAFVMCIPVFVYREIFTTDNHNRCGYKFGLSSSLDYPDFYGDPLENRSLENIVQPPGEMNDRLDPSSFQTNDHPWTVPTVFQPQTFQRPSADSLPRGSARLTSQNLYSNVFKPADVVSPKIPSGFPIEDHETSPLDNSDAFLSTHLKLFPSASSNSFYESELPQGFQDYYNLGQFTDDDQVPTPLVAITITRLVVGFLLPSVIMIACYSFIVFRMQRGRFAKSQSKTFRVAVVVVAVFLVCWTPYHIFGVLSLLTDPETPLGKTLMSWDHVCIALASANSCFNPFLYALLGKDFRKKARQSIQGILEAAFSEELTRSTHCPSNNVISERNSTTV
UniProt Q9BX69: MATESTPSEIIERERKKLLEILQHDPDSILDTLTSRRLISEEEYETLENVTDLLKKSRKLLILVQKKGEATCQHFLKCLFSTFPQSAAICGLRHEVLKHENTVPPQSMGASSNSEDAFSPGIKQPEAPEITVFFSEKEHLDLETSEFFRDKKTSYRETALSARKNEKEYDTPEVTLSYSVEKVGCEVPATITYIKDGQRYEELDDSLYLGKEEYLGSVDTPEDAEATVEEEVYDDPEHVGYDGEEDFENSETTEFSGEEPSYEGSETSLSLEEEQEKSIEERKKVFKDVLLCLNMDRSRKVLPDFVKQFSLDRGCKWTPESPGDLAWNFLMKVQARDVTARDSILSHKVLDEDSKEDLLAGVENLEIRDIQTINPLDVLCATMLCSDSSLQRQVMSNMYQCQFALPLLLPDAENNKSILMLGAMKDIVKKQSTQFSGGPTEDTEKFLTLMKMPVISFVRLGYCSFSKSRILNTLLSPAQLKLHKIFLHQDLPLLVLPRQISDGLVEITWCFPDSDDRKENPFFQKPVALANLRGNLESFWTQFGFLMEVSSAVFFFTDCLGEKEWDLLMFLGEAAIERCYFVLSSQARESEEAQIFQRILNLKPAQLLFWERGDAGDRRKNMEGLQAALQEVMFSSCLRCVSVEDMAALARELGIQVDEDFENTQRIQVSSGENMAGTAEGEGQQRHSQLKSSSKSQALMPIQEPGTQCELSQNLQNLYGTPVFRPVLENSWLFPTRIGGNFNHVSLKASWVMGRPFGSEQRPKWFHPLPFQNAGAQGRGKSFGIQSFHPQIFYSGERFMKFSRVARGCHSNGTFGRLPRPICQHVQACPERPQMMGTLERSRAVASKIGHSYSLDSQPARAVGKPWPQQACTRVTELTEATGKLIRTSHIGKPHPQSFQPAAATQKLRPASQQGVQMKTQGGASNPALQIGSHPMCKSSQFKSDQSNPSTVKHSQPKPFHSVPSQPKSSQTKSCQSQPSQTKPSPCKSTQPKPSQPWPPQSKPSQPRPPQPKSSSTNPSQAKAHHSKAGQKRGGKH

[2] = compound: C/C(=N\NC(=O)C1=CC(=CC=C1)S(=O)(=O)N2CCOCC2)/C3=C(C=CC(=C3)Cl)O
Outline: as §1

[3] = compound: C1=CC(=CC=C1C2=NC3=C(N2)C=C(C=C3)C(=O)N)OC4=CC=C(C=C4)Cl
Outline: as §1

[4] = compound: C1=CC2=C(C=CC(=C2)/C=C\3/C(=O)NC(=NCC4=CC=CS4)S3)N=C1
Outline: as §1

[5] = compound: C1=CC2=NC=CN=C2C=C1/C=C/3\C(=O)NC(=O)S3
Outline: as §1

[6] = compound: C1=CC=C(C=C1)C2=NC(=C(N2)C3=CC=NC=C3)C4=CC(=C(C=C4)Cl)O
Outline: as §1

[7] = compound: C1CCN(C1)C(=O)NC2=CC=CC(=C2)NC3=NC=C(C(=N3)NCCC4=CN=CN4)Br
Outline: as §1

[8] = compound: C1CN(CCC1(CC2=CC=C(C=C2)Cl)N)C3=NC=NC4=C3C=CN4
Outline: as §1

[9] = compound: C1COCCN1CCN2C3=CC=CC=C3N=C2NC(=O)C4=CC(=CC=C4)[N+](=O)[O-] [IRAK-1-4 Inhibitor I]
Outline: as §1

[10] = compound: C1=CC=C2C(=C1)C3=NNC4=CC=CC(=C43)C2=O
Outline: as §1

Measured: log2 fold change

CAMK2B (UniProt Q13554)
inactive: [1] 0.037 | [2] 0.086 | [3] -0.067 | [4] -0.039 | [5] -0.068 | [6] -0.069 | [7] 0.011 | [8] -0.034 | [9] 0.087

C12orf60 (UniProt Q5U649)
inactive: [1] -0.048 | [2] -0.14 | [3] 0.076 | [4] 0.046 | [6] -0.185 | [10] 0.036 | [9] -0.023

BTN3A3 (UniProt O00478)
inactive: [1] -0.11 | [2] 0.361 | [3] -0.188 | [4] -0.079 | [5] -0.038 | [6] 0.019 | [10] -0.148 | [9] 0.02

BUD13 (UniProt Q9BRD0)
inactive: [1] -0.04 | [3] -0.02 | [5] 0.054 | [6] 0.054 | [7] -0.046 | [8] -0.162 | [9] -0.066

C6orf136 isoform 4 (UniProt Q5SQH8)
inactive: [1] 0.105 | [2] -0.856 | [3] -0.11 | [4] -0.015 | [6] -0.076 | [10] 0.043 | [7] 0.042 | [8] -0.126 | [9] 0.121

C2CD2 (UniProt Q9Y426)
inactive: [1] -0.063 | [3] 0.108 | [5] -0.089 | [6] 0.08 | [7] -0.069 | [8] 0.138 | [9] -0.005

CAD (UniProt H7BZB3)
inactive: [1] 0.126 | [2] -0.127 | [3] -0.28 | [4] -0.069 | [10] -0.034 | [7] -0.035 | [8] -0.007

C2orf76 (UniProt Q3KRA6)
inactive: [1] -0.013 | [3] -0.009 | [5] 0.089 | [6] 0.064 | [7] 0.025 | [8] -0.002 | [9] 0.001

C4BPA (UniProt P04003)
inactive: [1] -0.036 | [2] 0.194 | [3] -0.002 | [4] 0.245 | [6] -0.08 | [10] 0.117 | [9] -0.02

C4orf46 (UniProt Q504U0)
inactive: [1] -0.263 | [3] -0.011 | [6] 0.053 | [9] -0.021

C16orf87 (UniProt Q6PH81)
inactive: [2] -0.259 | [4] 0.139 | [5] -0.1 | [6] -0.076 | [10] -0.07 | [7] 0.118 | [8] 0.147 | [9] -0.14

CAP1 isoform 2 (UniProt Q01518)
inactive: [1] -0.027 | [3] 0.035 | [5] 0.011 | [6] 0.134 | [9] 0.112

C12orf4 (UniProt Q9NQ89)
inactive: [1] 0.117 | [3] 0.125 | [5] -0.172 | [7] -0.11 | [8] -0.013

CAMSAP3 isoform 2 (UniProt Q9P1Y5)
inactive: [2] 0.064 | [4] -0.057 | [10] 0.02

C19orf44 (UniProt Q9H6X5)
inactive: [6] -0.11 | [9] 0.149

CANX (UniProt D6RHJ3)
inactive: [2] -0.321 | [4] 0.031 | [10] -0.022

C22orf39 (UniProt Q6P5X5)
inactive: [2] 0.175 | [4] 0.103 | [5] 0.117 | [6] -0.087 | [10] -0.055 | [7] -0.032 | [8] -0.033 | [9] 0.018

C12orf73 (UniProt Q69YU5)
inactive: [1] 0.009 | [3] 0.004 | [5] 0.043 | [6] -0.019 | [9] 0.094

CAPNS1 (UniProt U3KPR7)
inactive: [5] -0.105

C2orf49 isoform 2 (UniProt Q9BVC5)
inactive: [6] 0.034 | [9] -0.113

C1orf109 (UniProt Q9NX04)
inactive: [1] 0.178 | [3] -0.023 | [6] -0.115 | [7] -0.039 | [8] 0.054 | [9] -0.073

C1orf159 isoform 4 (UniProt Q96HA4)
inactive: [7] 0.074 | [8] 0.027

C19orf12 (UniProt Q9NSK7)
inactive: [6] -0.009 | [7] -0.002 | [8] -0.078 | [9] 0.003

C1orf174 (UniProt Q8IYL3)
inactive: [2] -0.025 | [4] -0.035 | [5] -0.042 | [6] -0.087 | [10] -0.048 | [9] 0.224

CAPN1 (UniProt E9PLX0)
inactive: [2] 0.216 | [4] -0.16 | [6] 0.283 | [10] -0.028 | [7] 0.144 | [8] -0.241 | [9] -0.067

C1RL (UniProt Q9NZP8)
inactive: [7] -0.066 | [8] 0.084

C11orf24 (UniProt Q96F05)
inactive: [6] -0.01 | [9] -0.029

Two records picked at random from the list so far:
CAMK2B (UniProt Q13554)
inactive: [1] 0.037 | [2] 0.086 | [3] -0.067 | [4] -0.039 | [5] -0.068 | [6] -0.069 | [7] 0.011 | [8] -0.034 | [9] 0.087

C1orf159 isoform 4 (UniProt Q96HA4)
inactive: [7] 0.074 | [8] 0.027

Continued.

C1orf226 isoform 2 (UniProt A1L170)
inactive: [2] -0.081 | [4] 0.176 | [6] 0.097 | [10] 0.007 | [9] -0.034

C6orf62 (UniProt Q9GZU0)
inactive: [2] 0.023 | [4] 0.077 | [10] 0.109

CAPNS2 (UniProt Q96L46)
inactive: [6] -0.004 | [9] 0.155

C19orf57 (UniProt Q0VDD7)
inactive: [2] 0.215 | [4] -0.142 | [10] -0.043

C2orf88 (UniProt Q9BSF0)
inactive: [6] 0.067 | [9] 0.108

C9orf85 isoform 1 (UniProt Q96MD7)
inactive: [5] -0.026 | [6] -0.003 | [9] 0.021

CAMKMT (UniProt Q7Z624)
inactive: [6] -0.089 | [9] 0.054

C11orf96 (UniProt Q7Z7L8)
inactive: [1] -0.127 | [3] -0.025 | [5] 0.019 | [6] 0.097 | [9] -0.046

CABLES2 (UniProt Q9BTV7)
inactive: [2] -0.013 | [4] 0.045 | [5] 0.083 | [10] 0.052 | [7] -0.018 | [8] 0.09

CA1 (UniProt E5RIF9)
inactive: [7] 0.101 | [8] 0.074

C9orf72 (UniProt Q96LT7)
inactive: [1] -0.043 | [3] 0.056 | [5] -0.01 | [6] -0.041 | [7] 0.056 | [8] -0.068 | [9] -0.042

C18orf21 (UniProt Q32NC0)
inactive: [1] -0.039 | [3] -0.057 | [5] -0.125 | [6] -0.025 | [9] -0.061

C8orf88 (UniProt P0DMB2)
inactive: [1] -0.006 | [3] -0.185 | [5] 0.028 | [6] -0.003 | [9] -0.013

C3AR1 (UniProt Q16581)
inactive: [5] 0.145

CARD6 (UniProt Q9BX69)
inactive: [2] -0.332 | [4] 0.081 | [10] -0.106

Reference: the supplement of paper PMC10849652
